Data as given in article PMC5584925.

Protein sequences, listed by entry. Tags and fused reporters are not part of them.
UniProt Q9UHB6: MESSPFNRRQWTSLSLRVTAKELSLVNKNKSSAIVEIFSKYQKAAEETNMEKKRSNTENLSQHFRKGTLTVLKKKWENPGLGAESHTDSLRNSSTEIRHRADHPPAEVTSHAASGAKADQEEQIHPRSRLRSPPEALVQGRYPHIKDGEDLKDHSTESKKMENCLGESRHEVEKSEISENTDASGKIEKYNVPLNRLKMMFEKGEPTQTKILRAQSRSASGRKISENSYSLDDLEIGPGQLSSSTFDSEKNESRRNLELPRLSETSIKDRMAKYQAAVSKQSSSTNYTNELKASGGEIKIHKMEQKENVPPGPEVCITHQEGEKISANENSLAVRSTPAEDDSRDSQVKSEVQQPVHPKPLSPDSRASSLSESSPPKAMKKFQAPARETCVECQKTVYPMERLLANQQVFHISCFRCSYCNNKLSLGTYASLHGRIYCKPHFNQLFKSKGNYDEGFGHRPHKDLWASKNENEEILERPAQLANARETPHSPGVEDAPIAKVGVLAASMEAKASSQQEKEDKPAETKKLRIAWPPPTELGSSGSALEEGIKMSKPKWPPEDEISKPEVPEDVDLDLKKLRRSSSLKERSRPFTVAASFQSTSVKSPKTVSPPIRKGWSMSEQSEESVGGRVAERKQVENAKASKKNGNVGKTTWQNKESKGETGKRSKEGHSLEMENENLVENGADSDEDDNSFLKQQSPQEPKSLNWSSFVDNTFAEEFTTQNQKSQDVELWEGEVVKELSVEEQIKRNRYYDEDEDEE
UniProt O43795: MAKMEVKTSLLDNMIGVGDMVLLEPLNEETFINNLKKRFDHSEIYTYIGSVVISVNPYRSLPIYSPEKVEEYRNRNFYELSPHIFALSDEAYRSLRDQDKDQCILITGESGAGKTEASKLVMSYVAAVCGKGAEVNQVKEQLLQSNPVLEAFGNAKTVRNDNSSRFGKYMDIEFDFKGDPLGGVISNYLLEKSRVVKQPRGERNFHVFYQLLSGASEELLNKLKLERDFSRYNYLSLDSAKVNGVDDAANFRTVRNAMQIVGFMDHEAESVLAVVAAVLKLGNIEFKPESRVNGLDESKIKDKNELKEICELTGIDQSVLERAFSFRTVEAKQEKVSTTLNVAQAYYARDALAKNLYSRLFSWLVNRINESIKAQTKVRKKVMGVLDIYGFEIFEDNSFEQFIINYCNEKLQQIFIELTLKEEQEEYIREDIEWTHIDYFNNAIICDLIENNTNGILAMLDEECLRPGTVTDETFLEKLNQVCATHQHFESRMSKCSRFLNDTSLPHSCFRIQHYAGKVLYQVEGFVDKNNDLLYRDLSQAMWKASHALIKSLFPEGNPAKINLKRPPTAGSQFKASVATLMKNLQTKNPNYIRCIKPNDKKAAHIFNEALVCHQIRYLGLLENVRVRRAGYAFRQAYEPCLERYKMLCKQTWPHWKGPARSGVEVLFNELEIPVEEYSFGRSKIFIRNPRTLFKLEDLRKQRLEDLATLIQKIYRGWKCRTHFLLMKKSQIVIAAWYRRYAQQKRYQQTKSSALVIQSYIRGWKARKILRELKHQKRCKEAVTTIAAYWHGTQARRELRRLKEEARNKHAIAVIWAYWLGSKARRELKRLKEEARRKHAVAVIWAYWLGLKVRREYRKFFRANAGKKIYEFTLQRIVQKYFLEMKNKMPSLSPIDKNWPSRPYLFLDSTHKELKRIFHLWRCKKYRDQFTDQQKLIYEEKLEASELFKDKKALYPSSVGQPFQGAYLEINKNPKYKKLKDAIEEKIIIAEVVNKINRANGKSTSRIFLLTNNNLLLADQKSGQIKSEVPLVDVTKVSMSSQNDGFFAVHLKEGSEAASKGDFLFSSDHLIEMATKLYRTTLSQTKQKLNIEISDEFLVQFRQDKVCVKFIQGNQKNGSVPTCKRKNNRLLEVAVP
UniProt Q14974: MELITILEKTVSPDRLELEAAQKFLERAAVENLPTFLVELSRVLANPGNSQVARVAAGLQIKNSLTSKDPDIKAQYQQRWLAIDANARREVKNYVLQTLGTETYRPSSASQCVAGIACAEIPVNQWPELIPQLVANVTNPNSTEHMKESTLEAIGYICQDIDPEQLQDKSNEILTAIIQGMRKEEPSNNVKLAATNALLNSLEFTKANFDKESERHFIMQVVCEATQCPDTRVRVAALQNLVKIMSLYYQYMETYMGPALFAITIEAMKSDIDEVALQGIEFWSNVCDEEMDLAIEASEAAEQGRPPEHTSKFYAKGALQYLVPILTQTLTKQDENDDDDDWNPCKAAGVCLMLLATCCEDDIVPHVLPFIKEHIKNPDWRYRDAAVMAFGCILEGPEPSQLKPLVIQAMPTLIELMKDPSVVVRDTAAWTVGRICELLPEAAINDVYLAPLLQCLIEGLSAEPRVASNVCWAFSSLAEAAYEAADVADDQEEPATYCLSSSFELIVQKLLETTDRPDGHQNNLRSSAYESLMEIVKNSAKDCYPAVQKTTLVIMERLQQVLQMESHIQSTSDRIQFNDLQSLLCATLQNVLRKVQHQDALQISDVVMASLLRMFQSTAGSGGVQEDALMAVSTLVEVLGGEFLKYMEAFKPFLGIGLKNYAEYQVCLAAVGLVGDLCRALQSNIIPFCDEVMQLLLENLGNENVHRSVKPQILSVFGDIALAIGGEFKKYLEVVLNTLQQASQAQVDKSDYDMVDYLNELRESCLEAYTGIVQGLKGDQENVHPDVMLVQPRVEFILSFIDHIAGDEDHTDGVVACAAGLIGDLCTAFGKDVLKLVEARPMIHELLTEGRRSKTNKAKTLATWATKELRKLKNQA

What was measured:
[1] = target: HA-tagged GST-POM121C (801–987) (human) (UniProt A8CG34); experiment: affinity purification with mass spectrometry; GST pull-down from HEK293 cells stably expressing GST-POM121C (801–987), SDS-PAGE, silver staining, three gel portions analysed by LC-nESI-MS/MS
[2] = target: HA-tagged GST-POM121C (801–987) (human) (UniProt A8CG34); experiment: affinity purification with mass spectrometry

binding [1]	binding [2]	Substance
binds		Angiomotin (from UniProt Q4VCS5 1-1084)
	binds	LIM domain and actin-binding protein 1 (from UniProt Q9UHB6 1-759)
	binds	Myosin-Ib (from UniProt O43795 1-1136)
	binds	Importin subunit beta-1 (KPNB1) (from UniProt Q14974 1-876)

These are yes or no findings as the source states them, for the method shown. In cells and extracts the contact can be indirect. A yes stands for co-enrichment or nearness to the bait. Other partners may have been found. Tags and fused reporters may be left off the sequences shown.
